Measurements reported in article doi:10.1101/2022.02.08.479616.
These are yes or no findings as the source states them, for the method shown. For part of these data: Binding seen in cells or lysates may run through a third protein. Tags and fused reporters may be left off the sequences shown. One block for each molecule: values may come before it.

Protein sequences, listed by entry. Tags and fused reporters are not part of them. Residues count along the entry.
UniProt Q9SJE1, residues 50-760: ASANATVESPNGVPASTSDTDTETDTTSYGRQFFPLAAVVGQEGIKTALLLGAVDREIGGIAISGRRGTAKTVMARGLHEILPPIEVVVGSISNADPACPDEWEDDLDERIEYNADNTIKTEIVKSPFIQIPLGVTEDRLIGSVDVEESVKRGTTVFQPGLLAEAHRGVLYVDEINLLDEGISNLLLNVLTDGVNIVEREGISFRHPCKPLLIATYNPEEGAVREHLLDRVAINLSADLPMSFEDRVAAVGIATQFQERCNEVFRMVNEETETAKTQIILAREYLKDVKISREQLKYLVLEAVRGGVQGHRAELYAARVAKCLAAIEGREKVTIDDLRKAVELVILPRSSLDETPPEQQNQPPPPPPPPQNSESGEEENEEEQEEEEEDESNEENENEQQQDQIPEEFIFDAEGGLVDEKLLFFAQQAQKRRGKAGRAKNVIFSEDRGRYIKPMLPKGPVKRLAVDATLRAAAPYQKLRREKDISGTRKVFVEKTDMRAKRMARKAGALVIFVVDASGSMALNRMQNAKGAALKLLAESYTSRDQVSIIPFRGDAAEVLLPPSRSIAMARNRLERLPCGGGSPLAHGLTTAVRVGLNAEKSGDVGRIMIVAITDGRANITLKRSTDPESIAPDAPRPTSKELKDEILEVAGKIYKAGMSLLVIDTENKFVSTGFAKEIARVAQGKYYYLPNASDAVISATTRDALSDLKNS

How the values were obtained:
[1] = biological target: T1, OR-Like (ORL), split-YFP fusion for BiFC (Arabidopsis thaliana) (UniProt Q8VYD8); assay: split reporter
T1 sequence: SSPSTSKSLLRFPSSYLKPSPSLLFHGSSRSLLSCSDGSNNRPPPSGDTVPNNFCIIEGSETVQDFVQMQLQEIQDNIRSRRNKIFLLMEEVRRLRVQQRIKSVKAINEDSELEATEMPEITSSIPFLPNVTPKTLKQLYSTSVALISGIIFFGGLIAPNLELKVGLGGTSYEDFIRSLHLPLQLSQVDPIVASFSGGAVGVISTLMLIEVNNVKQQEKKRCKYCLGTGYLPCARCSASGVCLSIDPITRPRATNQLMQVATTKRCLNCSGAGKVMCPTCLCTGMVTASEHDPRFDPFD

[2] = biological target: T2, ORANGE (OR), split-YFP fusion for BiFC (Arabidopsis thaliana) (UniProt Q9FKF4); assay: split reporter
T2 sequence: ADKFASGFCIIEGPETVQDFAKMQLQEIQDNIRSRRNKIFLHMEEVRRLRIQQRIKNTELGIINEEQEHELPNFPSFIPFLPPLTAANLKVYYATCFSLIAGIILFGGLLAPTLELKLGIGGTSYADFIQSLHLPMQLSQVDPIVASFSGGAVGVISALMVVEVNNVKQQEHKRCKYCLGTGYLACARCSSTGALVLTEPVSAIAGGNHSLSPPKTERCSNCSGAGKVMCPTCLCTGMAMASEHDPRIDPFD

[3] = biological target: T3, OR-Like (ORL), Cub fusion for split-ubiquitin Y2H (Arabidopsis thaliana) (UniProt Q8VYD8); assay: two-hybrid
T3 sequence: T1 sequence

[4] = biological target: T4, ORANGE (OR), Cub fusion for split-ubiquitin Y2H (Arabidopsis thaliana) (UniProt Q9FKF4); assay: two-hybrid
T4 sequence: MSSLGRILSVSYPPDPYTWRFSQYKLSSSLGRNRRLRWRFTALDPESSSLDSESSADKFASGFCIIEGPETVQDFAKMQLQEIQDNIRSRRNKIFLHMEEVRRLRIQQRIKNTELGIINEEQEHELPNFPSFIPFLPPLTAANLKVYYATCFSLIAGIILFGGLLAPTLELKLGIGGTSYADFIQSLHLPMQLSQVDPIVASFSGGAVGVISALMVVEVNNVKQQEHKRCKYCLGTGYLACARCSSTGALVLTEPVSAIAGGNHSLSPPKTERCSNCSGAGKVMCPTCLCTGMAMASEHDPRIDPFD

binding [1]: no binding | binding [2]: no binding
Molecule: Mg-chelatase subunit CHLD, split-YFP fusion for BiFC (from UniProt Q9SJE1 50-760)

binding [3]: no binding | binding [4]: no binding
B1: GENOMES UNCOUPLED 4 (GUN4), Nub fusion for split-ubiquitin Y2H (protein, UniProt Q9LX31 70-265)
chain: ASATTAETATIFDVLENHLVNQNFRQADEETRRLLIQISGEAAVKRGYVFFSEVKTISPEDLQAIDNLWIKHSDGRFGYSVQRKIWLKVKKDFTRFFVKVEWMKLLDTEVVQYNYRAFPDEFKWELNDETPLGHLPLTNALRGTQLLKCVLSHPAFATADDNSGETEDELNRGVAVAKEQAGVGADKRVFKTNYSF

binding [3]: no binding | binding [4]: no binding
B2: Mg-chelatase catalytic subunit CHLH (GENOMES UNCOUPLED 5), Nub fusion for split-ubiquitin Y2H (protein, UniProt Q9FNB0 50-1381)
chain: AVSGNGLFTQTNPEVRRIVPIKRDNVPTVKIVYVVLEAQYQSSLSEAVQSLNKTSRFASYEVVGYLVEELRDKNTYNNFCEDLKDANIFIGSLIFVEELAIKVKDAVEKERDRMDAVLVFPSMPEVMRLNKLGSFSMSQLGQSKSPFFQLFKRKKQGSAGFADSMLKLVRTLPKVLKYLPSDKAQDARLYILSLQFWLGGSPDNLQNFVKMISGSYVPALKGVKIEYSDPVLFLDTGIWHPLAPTMYDDVKEYWNWYDTRRDTNDSLKRKDATVVGLVLQRSHIVTGDDSHYVAVIMELEARGAKVVPIFAGGLDFSGPVEKYFVDPVSKQPIVNSAVSLTGFALVGGPARQDHPRAIEALKKLDVPYLVAVPLVFQTTEEWLNSTLGLHPIQVALQVALPELDGAMEPIVFAGRDPRTGKSHALHKRVEQLCIRAIRWGELKRKTKAEKKLAITVFSFPPDKGNVGTAAYLNVFASIFSVLRDLKRDGYNVEGLPENAETLIEEIIHDKEAQFSSPNLNVAYKMGVREYQDLTPYANALEENWGKPPGNLNSDGENLLVYGKAYGNVFIGVQPTFGYEGDPMRLLFSKSASPHHGFAAYYSYVEKIFKADAVLHFGTHGSLEFMPGKQVGMSDACFPDSLIGNIPNVYYYAANNPSEATIAKRRSYANTISYLTPPAENAGLYKGLKQLSELISSYQSLKDTGRGPQIVSSIISTAKQCNLDKDVDLPDEGLELSPKDRDSVVGKVYSKIMEIESRLLPCGLHVIGEPPSAMEAVATLVNIAALDRPEDEISALPSILAECVGREIEDVYRGSDKGILSDVELLKEITDASRGAVSAFVEKTTNSKGQVVDVSDKLTSLLGFGINEPWVEYLSNTKFYRANRDKLRTVFGFLGECLKLVVMDNELGSLMQALEGKYVEPGPGGDPIRNPKVLPTGKNIHALDPQAIPTTAAMASAKIVVERLVERQKLENEGKYPETIALVLWGTDNIKTYGESLGQVLWMIGVRPIADTFGRVNRVEPVSLEELGRPRIDVVVNCSGVFRDLFINQMNLLDRAIKMVAELDEPVEQNFVRKHALEQAEALGIDIREAATRVFSNASGSYSANISLAVENSSWNDEKQLQDMYLSRKSFAFDSDAPGAGMAEKKQVFEMALSTAEVTFQNLDSSEISLTDVSHYFDSDPTNLVQSLRKDKKKPSSYIADTTTANAQVRTLSETVRLDARTKLLNPKWYEGMMSSGYEGVREIEKRLSNTVGWSATSGQVDNWVYEEANSTFIQDEEMLNRLMNTNPNSFRKMLQTFLEANGRGYWDTSAENIEKLKELYSQVEDKIEGIDR
